The supplement of paper PMC10849652
This is one part of the list. Residues, ends and D or L forms follow the SMILES beside them. *: point of attachment. Cbz = O=C(OCc1ccccc1)*

Protein sequences, listed by entry. Tags and fused reporters are not part of them. Lines headed by an entry give the natural chain unless they say otherwise; changes in a name come on top.
UniProt O15118: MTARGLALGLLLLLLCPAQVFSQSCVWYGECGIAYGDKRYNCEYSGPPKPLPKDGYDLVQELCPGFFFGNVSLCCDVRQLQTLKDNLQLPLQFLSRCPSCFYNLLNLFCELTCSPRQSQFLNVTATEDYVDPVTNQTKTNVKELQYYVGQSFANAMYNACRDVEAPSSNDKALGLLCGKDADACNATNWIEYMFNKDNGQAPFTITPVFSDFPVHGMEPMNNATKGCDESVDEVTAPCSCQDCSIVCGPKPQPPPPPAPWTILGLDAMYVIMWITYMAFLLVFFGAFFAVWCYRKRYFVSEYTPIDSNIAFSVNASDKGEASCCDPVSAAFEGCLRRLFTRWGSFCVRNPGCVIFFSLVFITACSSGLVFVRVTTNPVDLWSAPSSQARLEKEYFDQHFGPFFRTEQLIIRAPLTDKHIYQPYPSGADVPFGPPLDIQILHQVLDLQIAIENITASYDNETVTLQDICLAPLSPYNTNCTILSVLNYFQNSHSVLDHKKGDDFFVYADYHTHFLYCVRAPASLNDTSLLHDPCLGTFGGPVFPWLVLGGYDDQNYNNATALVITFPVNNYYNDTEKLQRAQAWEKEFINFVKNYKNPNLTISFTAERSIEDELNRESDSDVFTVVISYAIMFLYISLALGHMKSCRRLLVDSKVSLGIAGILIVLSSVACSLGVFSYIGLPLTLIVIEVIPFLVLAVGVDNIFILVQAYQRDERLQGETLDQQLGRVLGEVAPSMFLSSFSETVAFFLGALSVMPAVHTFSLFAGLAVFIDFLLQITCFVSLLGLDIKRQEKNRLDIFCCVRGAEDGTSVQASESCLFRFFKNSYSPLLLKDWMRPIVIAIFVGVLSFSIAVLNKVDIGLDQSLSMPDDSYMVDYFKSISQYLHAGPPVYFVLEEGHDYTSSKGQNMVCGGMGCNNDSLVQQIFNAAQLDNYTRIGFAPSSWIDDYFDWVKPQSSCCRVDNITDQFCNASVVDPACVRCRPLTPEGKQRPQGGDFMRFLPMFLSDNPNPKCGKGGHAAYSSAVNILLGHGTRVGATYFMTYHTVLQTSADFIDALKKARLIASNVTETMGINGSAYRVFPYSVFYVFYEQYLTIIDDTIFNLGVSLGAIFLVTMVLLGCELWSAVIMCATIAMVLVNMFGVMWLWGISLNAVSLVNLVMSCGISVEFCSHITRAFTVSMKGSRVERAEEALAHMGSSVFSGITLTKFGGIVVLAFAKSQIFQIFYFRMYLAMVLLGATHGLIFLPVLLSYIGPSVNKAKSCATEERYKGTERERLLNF
UniProt Q92686, whole entry, looked up: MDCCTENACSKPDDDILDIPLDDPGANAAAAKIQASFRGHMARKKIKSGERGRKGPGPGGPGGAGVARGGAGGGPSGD
UniProt Q9Y2X3: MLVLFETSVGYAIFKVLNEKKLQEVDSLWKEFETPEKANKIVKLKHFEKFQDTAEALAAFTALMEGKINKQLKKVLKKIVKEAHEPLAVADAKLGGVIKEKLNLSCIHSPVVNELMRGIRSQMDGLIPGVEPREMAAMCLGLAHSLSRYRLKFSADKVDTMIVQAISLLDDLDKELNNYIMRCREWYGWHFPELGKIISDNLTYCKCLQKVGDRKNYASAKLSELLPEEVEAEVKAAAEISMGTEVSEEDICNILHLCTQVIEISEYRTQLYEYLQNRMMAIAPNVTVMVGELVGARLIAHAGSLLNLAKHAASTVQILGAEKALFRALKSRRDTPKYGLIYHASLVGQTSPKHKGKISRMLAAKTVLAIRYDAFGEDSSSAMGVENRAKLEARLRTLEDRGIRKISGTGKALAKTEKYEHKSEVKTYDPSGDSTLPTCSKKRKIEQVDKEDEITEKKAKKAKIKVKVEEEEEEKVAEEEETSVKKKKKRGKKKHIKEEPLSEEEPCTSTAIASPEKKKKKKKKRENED
UniProt Q8IXH7, whole entry, looked up: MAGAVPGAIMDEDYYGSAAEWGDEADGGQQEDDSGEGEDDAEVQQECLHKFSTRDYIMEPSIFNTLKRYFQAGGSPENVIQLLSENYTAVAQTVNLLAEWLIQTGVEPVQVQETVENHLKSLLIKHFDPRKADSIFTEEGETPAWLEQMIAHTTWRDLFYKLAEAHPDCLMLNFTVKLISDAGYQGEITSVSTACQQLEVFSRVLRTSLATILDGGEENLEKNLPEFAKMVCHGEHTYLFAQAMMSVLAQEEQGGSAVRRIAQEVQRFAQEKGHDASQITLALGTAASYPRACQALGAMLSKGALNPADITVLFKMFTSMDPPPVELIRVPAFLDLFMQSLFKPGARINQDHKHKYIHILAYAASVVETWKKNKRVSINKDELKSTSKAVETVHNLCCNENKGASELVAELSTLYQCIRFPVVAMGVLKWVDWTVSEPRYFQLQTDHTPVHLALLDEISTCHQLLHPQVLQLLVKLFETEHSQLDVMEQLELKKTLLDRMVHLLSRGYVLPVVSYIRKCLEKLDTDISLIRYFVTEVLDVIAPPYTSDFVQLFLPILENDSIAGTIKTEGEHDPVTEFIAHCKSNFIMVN
UniProt P51956: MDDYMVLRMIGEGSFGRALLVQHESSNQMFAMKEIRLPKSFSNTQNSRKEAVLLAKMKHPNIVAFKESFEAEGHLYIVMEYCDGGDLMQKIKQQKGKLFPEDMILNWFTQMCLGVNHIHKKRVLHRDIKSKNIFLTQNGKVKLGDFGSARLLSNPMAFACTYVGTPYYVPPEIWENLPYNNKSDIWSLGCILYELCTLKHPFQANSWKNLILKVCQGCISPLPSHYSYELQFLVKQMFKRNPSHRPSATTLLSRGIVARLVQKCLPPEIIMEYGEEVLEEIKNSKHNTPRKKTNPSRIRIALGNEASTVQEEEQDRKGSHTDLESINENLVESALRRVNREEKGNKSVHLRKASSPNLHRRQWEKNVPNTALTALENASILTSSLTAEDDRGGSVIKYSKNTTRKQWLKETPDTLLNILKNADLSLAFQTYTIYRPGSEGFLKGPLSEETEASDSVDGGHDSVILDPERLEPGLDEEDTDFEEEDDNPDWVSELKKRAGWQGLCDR
UniProt Q9ULX3: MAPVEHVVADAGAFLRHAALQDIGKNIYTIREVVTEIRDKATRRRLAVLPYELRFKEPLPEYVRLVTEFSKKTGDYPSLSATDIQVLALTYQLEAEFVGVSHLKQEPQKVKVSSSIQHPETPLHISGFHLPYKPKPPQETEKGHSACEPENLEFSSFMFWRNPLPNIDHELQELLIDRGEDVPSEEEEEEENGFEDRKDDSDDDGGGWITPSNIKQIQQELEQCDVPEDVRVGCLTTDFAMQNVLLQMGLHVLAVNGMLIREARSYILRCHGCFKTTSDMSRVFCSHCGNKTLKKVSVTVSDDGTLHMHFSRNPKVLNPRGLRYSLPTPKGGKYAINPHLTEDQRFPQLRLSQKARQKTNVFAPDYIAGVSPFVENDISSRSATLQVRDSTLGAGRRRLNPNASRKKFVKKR
UniProt Q9BS92: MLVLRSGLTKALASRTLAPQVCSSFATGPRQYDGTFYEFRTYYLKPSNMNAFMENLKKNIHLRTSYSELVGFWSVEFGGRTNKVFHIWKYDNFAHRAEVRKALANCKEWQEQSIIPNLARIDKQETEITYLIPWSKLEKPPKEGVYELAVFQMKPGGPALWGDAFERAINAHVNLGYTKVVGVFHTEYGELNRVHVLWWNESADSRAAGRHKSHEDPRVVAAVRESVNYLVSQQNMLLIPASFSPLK
UniProt P04150: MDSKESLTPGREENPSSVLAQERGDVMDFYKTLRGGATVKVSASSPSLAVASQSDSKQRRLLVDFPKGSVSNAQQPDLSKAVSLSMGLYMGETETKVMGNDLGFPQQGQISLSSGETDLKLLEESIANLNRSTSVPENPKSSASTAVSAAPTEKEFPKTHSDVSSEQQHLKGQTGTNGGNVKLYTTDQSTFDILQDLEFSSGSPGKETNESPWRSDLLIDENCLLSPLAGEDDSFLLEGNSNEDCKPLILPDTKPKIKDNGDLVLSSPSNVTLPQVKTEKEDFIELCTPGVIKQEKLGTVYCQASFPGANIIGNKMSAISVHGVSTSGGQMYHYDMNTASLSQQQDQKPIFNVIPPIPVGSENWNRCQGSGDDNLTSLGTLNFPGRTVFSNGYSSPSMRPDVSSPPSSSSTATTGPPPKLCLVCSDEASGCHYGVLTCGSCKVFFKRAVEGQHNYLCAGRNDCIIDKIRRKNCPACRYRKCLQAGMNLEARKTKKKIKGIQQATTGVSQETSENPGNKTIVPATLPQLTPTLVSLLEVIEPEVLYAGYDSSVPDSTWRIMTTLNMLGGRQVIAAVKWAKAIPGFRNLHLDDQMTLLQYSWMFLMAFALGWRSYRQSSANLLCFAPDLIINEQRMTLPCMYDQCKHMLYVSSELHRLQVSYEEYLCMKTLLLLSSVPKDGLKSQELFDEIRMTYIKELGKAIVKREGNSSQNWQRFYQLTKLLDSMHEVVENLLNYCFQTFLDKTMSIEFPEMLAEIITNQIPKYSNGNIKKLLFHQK
UniProt Q9Y5B8, whole entry, looked up: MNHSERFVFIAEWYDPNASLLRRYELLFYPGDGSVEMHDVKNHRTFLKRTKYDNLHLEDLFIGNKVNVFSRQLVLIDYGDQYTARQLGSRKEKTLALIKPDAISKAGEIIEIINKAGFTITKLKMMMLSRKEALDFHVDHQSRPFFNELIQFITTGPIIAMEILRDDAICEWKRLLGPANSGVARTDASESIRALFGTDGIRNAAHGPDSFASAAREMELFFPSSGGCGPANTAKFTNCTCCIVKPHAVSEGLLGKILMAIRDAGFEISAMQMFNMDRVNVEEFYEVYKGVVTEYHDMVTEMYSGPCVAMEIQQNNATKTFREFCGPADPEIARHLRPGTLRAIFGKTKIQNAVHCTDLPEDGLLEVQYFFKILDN
UniProt Q7RTR2: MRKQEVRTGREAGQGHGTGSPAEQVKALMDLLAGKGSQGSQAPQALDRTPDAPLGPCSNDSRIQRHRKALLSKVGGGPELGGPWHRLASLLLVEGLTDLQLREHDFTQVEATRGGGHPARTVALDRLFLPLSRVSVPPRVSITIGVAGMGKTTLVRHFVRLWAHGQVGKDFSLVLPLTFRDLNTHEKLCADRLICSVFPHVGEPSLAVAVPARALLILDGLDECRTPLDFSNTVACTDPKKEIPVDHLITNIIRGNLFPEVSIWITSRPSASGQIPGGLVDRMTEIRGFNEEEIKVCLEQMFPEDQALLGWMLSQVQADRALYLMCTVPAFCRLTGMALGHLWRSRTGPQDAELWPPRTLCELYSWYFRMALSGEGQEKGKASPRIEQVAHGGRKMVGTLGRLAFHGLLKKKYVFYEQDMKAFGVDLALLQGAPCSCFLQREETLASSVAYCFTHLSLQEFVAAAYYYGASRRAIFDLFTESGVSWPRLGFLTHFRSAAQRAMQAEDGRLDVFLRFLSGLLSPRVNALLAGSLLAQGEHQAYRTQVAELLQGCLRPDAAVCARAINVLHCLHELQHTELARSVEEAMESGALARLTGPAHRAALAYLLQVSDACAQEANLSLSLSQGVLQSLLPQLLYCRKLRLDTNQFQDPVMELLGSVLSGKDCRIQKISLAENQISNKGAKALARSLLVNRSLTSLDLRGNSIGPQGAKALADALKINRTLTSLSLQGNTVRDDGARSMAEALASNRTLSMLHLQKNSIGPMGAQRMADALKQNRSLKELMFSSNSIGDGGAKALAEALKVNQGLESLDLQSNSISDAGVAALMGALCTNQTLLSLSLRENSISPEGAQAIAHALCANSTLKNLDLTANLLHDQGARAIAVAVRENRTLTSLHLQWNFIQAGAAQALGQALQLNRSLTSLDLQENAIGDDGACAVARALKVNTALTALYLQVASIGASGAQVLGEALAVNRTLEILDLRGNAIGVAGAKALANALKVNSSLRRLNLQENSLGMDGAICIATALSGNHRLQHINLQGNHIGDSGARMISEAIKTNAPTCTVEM
UniProt O00221: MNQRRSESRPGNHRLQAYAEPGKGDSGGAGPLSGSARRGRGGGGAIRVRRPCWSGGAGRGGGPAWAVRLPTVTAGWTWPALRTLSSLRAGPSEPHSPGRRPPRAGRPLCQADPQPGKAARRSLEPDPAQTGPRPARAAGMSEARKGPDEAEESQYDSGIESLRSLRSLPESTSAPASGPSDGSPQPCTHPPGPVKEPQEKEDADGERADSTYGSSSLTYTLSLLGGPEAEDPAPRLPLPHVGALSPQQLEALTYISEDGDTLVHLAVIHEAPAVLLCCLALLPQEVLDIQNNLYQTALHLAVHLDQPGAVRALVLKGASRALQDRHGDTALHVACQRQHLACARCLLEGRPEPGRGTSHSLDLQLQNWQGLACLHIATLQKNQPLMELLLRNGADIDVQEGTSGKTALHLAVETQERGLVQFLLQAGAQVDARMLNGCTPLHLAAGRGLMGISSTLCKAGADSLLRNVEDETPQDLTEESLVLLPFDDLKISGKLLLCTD

What was measured:
Experiment in all cases: log2 fold change, soluble protein after heating vs DMSO (PISA); higher = thermal stabilisation; K562 cells, 10 uM, 30 min; active = over 0.2 and 3.5 SD of the protein, either way, in both replicates (recomputed)
erlotinib = compound: C#Cc1cccc(Nc2ncnc3cc(OCCOC)c(OCCOC)cc23)c1 [erlotinib]
Procedure, shortened: (§1)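 Aliquots of K562 cells (2×10^6 cells/mL) treated with 10 μM compound for 30 min were heated for 3 min over 48°C-58°C. After pooling and extraction in PBS with 0.5% NP-40 at 4°C, soluble protein from a 21,000xg, 90 min spin was quantified by TMTpro 16plex LC-MS/MS with channel sums equalised. Thermal stability is expressed against control samples, from duplicates, as a log2 fold change.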

[1] = compound: C/C(=N\NC(=O)C1=CC(=CC=C1)S(=O)(=O)N2CCOCC2)/C3=C(C=CC(=C3)Cl)O
Procedure, shortened: as §1

[2] = compound: C1=CC(=C(C=C1Cl)C2=NC3=NC=CN=C3C(=N2)NC4=CC=NC=C4)F
Procedure, shortened: as §1

[3] = compound: C1=CC(=CC=C1C2=NC3=C(N2)C=C(C=C3)C(=O)N)OC4=CC=C(C=C4)Cl
Procedure, shortened: as §1

[4] = compound: C1=CC2=C(C=CC(=C2)/C=C\3/C(=O)NC(=NCC4=CC=CS4)S3)N=C1
Procedure, shortened: as §1

[5] = compound: C1=CC2=NC=CN=C2C=C1/C=C/3\C(=O)NC(=O)S3
Procedure, shortened: as §1

[6] = compound: C1=CC=C(C=C1)C2=NC(=C(N2)C3=CC=NC=C3)C4=CC(=C(C=C4)Cl)O
Procedure, shortened: as §1

[7] = compound: C1=CC=C2C(=C1)C3=NNC4=CC=CC(=C43)C2=O
Procedure, shortened: as §1

[8] = compound: C1CCN(C1)C(=O)NC2=CC=CC(=C2)NC3=NC=C(C(=N3)NCCC4=CN=CN4)Br
Procedure, shortened: as §1

[9] = compound: C1CN(CCC1(CC2=CC=C(C=C2)Cl)N)C3=NC=NC4=C3C=CN4
Procedure, shortened: as §1

IRAK-1-4 Inhibitor I = compound: C1COCCN1CCN2C3=CC=CC=C3N=C2NC(=O)C4=CC(=CC=C4)[N+](=O)[O-] [IRAK-1-4 Inhibitor I]
Procedure, shortened: as §1

ibrutinib = compound: C=CC(=O)N1CCC[C@@H](n2nc(-c3ccc(Oc4ccccc4)cc3)c3c(N)ncnc32)C1 [ibrutinib]
Procedure, shortened: as §1

[10] = compound: CC(=O)c1cnc2ccc(-c3cc(Cl)c(O)c(Cl)c3)nc2c1N[C@H]1CC[C@H](CN(C)C)CC1
Procedure, shortened: as §1

ralimetinib = compound: CC(C)(C)Cn1c(N)nc2ccc(-c3[nH]c(C(C)(C)C)nc3-c3ccc(F)cc3)nc21 [ralimetinib]
Procedure, shortened: as §1

[11] = compound: CC(C)(O)CC(=O)NCCn1ccc2ncnc(Nc3ccc(Oc4cccc(C(F)(F)F)c4)c(Cl)c3)c21
Procedure, shortened: as §1

[12] = compound: CC(C)C1=C2N=C(C=C(N2N=C1)NCC3=CC=CC=C3)NCCCCCCN
Procedure, shortened: as §1

[13] = compound: CC(C)C[C@@H](C=O)NC(=O)[C@H](CC(C)C)NC(=O)[C@H](CC(C)C)NC(=O)OCc1ccccc1
Procedure, shortened: as §1

pinometostat = compound: CC(C)N(C[C@H]1O[C@@H](n2cnc3c(N)ncnc32)[C@H](O)[C@@H]1O)[C@H]1C[C@@H](CCc2nc3cc(C(C)(C)C)ccc3[nH]2)C1 [pinometostat]
Procedure, shortened: as §1

[14] = compound: CC1=C(C2=C(C=C1)C(=O)C3=CC=CC=C3N2CCCN)C
Procedure, shortened: as §1

[15] = compound: CC1=C(C(CC(=O)N1)C2=CC=C(C=C2)C(F)(F)F)C(=O)NC3=C(C=C4C(=C3)C=NN4)F
Procedure, shortened: as §1

Target | log2 fold change (erlotinib) | log2 fold change [1] | log2 fold change [2] | log2 fold change [3] | log2 fold change [4] | log2 fold change [5] | log2 fold change [6] | log2 fold change [7] | log2 fold change [8] | log2 fold change [9] | log2 fold change (IRAK-1-4 Inhibitor I) | log2 fold change (ibrutinib) | log2 fold change [10] | log2 fold change (ralimetinib) | log2 fold change [11] | log2 fold change [12] | log2 fold change [13] | log2 fold change (pinometostat) | log2 fold change [14] | log2 fold change [15]
NPC1 (UniProt O15118) | inactive: 0.027 | inactive: -0.033 | inactive: -0.004 | inactive: 0.025 | inactive: -0.01 | inactive: 0.028 | inactive: 0.011 | inactive: -0.027 | inactive: 0.058 | inactive: 0.069 | inactive: 0.014 | inactive: 0.03 | inactive: 0.031 | inactive: -0.041 | inactive: 0.028 | inactive: -0.184 | inactive: 0.006 | inactive: -0.055 | inactive: -0.147 | 
NSL1 (UniProt Q96IY1) | inactive: 0.007 | inactive: 0.174 |  | inactive: -0.072 | inactive: 0.052 | inactive: -0.012 | inactive: 0.02 | inactive: -0.082 | inactive: 0.009 | inactive: -0.185 | inactive: -0.069 | inactive: -0.019 | inactive: -0.045 | inactive: 0.038 |  | inactive: -0.095 | inactive: 0.023 | inactive: -0.093 | inactive: -0.166 | inactive: -0.057
NOP56 (UniProt O00567) | inactive: -0.093 | inactive: -0.012 | active: -0.676 | inactive: 0.087 | inactive: -0.232 | inactive: 0.045 | inactive: -0.164 | inactive: -0.109 | inactive: -0.111 | inactive: -0.15 | inactive: -0.03 | inactive: 0.025 | inactive: 0.015 | inactive: 0.082 | inactive: 0.108 | inactive: 0.202 | inactive: 0.234 | inactive: 0.198 | inactive: 0.187 | 
NRGN (UniProt Q92686) | inactive: 0.066 | inactive: 0.086 | inactive: 0.054 | inactive: -0.074 | inactive: -0.264 | inactive: -0.027 | inactive: 0.139 | inactive: 0.105 |  |  | inactive: 0.151 | inactive: 0.079 | inactive: 0.034 | inactive: 0.007 | inactive: 0.053 | inactive: 0.058 | inactive: -0.199 | inactive: 0.21 |  | 
NOP58 (UniProt Q9Y2X3) | inactive: -0.013 | inactive: 0.001 | inactive: -0.332 | inactive: -0.001 | inactive: -0.043 | inactive: 0.034 | inactive: -0.055 | inactive: -0.126 | inactive: -0.156 | inactive: -0.143 | inactive: -0.06 | inactive: 0.039 | inactive: -0.117 | inactive: -0.008 | inactive: 0.06 | inactive: 0.052 | inactive: 0.117 | inactive: 0.128 | inactive: -0.029 | 
NELFCD (UniProt Q8IXH7) | inactive: 0.096 | inactive: 0.034 | inactive: 0.121 | inactive: -0.154 | inactive: 0.056 | inactive: 0.031 |  | inactive: 0.06 |  |  | inactive: -0.038 | inactive: -0.18 | inactive: -0.04 |  | inactive: -0.394 | inactive: 0.101 |  | inactive: 0.017 |  | 
NEK3 (UniProt P51956) | inactive: 0.003 | inactive: -0.011 | inactive: 0.096 | inactive: 0.06 | inactive: -0.063 |  | inactive: 0.039 | inactive: -0.05 | inactive: -0.141 | inactive: 0.103 | inactive: 0.104 |  | inactive: -0.184 | inactive: -0.168 | inactive: -0.015 | inactive: 0.127 | inactive: 0.098 | inactive: -0.015 | inactive: 0.018 | 
NOB1 (UniProt Q9ULX3) | inactive: 0.048 | inactive: 0.061 | inactive: -0.106 | inactive: 0.017 | inactive: -0.025 | inactive: -0.08 | inactive: 0.081 | inactive: 0.053 | inactive: 0.045 | inactive: -0.078 | inactive: -0.062 | inactive: -0.025 | inactive: -0.083 | active: 0.288 | inactive: -0.033 | inactive: -0.15 | inactive: 0.053 | inactive: 0.068 | inactive: -0.031 | 
NEMP1 (UniProt O14524) | inactive: -0.003 | inactive: -0.011 | inactive: -0.027 | inactive: 0.023 | inactive: 0.049 | inactive: 0.016 | inactive: -0.056 | inactive: -0.162 | inactive: 0.068 | inactive: 0.048 | inactive: 0.003 | inactive: -0.01 | inactive: -0.081 | inactive: -0.03 | inactive: -0.023 | active: -0.508 | inactive: 0.08 | inactive: 0.009 | inactive: -0.119 | 
NSD3 (UniProt Q9BZ95) | inactive: -0.126 | inactive: -0.11 | inactive: 0.087 | inactive: 0.044 | inactive: -0.083 | inactive: -0.203 |  | inactive: 0.026 | inactive: -0.208 | inactive: -0.435 | inactive: 0.122 | inactive: -0.024 | inactive: 0.072 |  | inactive: -0.018 | inactive: 0.072 |  | inactive: 0.057 | inactive: 0.066 | 
NIPSNAP3B (UniProt Q9BS92) | inactive: -0.061 | inactive: -0.014 |  | inactive: -0.071 | inactive: -0.159 | inactive: 0.031 |  | inactive: 0.007 | inactive: 0.008 | inactive: 0.051 | inactive: 0.048 | inactive: 0.082 | inactive: 0.026 |  |  | inactive: 0.045 |  | inactive: 0.056 | inactive: 0.049 | 
NR3C1 isoform 3 (UniProt P04150) | inactive: 0.03 | inactive: -0.61 | inactive: 0.103 | inactive: -0.08 | inactive: 0.161 |  |  |  | inactive: -0.13 | inactive: -0.098 | inactive: 0.267 |  | inactive: 0.076 |  | inactive: -0.21 | inactive: -0.669 |  | inactive: 0.22 | inactive: 0.046 | inactive: 0.041
NELFA (UniProt Q9H3P2) | inactive: 0.21 | inactive: 0.231 | inactive: 0.059 | inactive: -0.061 | inactive: 0.073 | inactive: 0.111 | inactive: 0.048 | inactive: 0 | inactive: -0.323 | inactive: -0.028 | inactive: -0.065 | inactive: 0 | inactive: -0.357 | inactive: 0.02 | inactive: -0.286 | inactive: -0.054 | inactive: -0.043 | inactive: -0.02 | inactive: 0.252 | 
NME7 (UniProt Q9Y5B8) | inactive: 0.166 | inactive: 0.058 | inactive: -0.052 | inactive: -0.247 | inactive: 0.127 | inactive: -0.023 | inactive: 0.06 | inactive: 0.006 | inactive: -0.039 | inactive: -0.248 | inactive: 0.056 | inactive: -0.054 | inactive: -0.038 | inactive: 0.095 | inactive: -0.116 | inactive: -0.066 | inactive: 0.059 | inactive: 0.065 | inactive: -0.086 | 
NLRC3 isoform 2 (UniProt Q7RTR2) | inactive: 0.266 | inactive: -0.176 | inactive: -0.097 | inactive: -0.062 | inactive: 0.569 | inactive: 0.048 | inactive: -0.315 | inactive: -0.06 |  |  | inactive: 0.037 | inactive: -0.033 | inactive: -0.089 | inactive: -0.257 | inactive: 0.039 | inactive: -0.091 | inactive: 0.115 | inactive: 0.04 |  | inactive: 0.026
NES (UniProt P48681) | inactive: -0.064 | inactive: -0.15 | inactive: -0.33 | inactive: -0.029 | inactive: 0.011 | inactive: 0.166 | inactive: -0.019 | inactive: 0.04 | inactive: 0.023 | inactive: -0.111 | inactive: -0.038 | inactive: 0.485 | inactive: 0.188 | inactive: 0.065 | inactive: 0.049 | inactive: -0.244 | inactive: 0.031 | inactive: 0.146 | inactive: 0.026 | 
NEURL4 (UniProt Q96JN8) | inactive: -0.065 | inactive: -0.41 |  | inactive: 0.246 | inactive: 0.188 | inactive: -0.094 | inactive: -0.08 | inactive: -0.104 |  |  |  | inactive: 0.23 | inactive: 0.013 | inactive: 0.013 |  | inactive: 0.373 | inactive: 0.113 |  |  | 
NFKBIE (UniProt O00221) | inactive: 0.023 | inactive: 0.052 | inactive: 0.057 | inactive: 0.026 | inactive: -0.055 |  | inactive: -0.002 | inactive: 0.006 | inactive: -0.012 | inactive: 0.03 | inactive: 0.087 |  | inactive: 0.009 | inactive: 0.061 | inactive: -0.127 | inactive: 0.154 | inactive: 0.033 | inactive: 0.017 | inactive: 0.029 | inactive: 0.033
NOP53 (UniProt Q9NZM5) | inactive: -0.201 | inactive: -0.272 | inactive: -0.231 | inactive: 0.005 | inactive: -0.298 | inactive: 0.036 | inactive: -0.147 | inactive: -0.121 | inactive: 0.058 | inactive: -0.387 | inactive: -0.209 | inactive: 0.018 | inactive: 0.303 | inactive: 0.212 | inactive: 0.411 | inactive: 0.233 | inactive: 0.089 | inactive: 0.321 | active: -1.19 | 

Retrieved one by one from the entries so far, 2 records:
Target | log2 fold change (erlotinib) | log2 fold change [1] | log2 fold change [2] | log2 fold change [3] | log2 fold change [4] | log2 fold change [5] | log2 fold change [6] | log2 fold change [7] | log2 fold change [8] | log2 fold change [9] | log2 fold change (IRAK-1-4 Inhibitor I) | log2 fold change (ibrutinib) | log2 fold change [10] | log2 fold change (ralimetinib) | log2 fold change [11] | log2 fold change [12] | log2 fold change [13] | log2 fold change (pinometostat) | log2 fold change [14] | log2 fold change [15]
NES (UniProt P48681) | inactive: -0.064 | inactive: -0.15 | inactive: -0.33 | inactive: -0.029 | inactive: 0.011 | inactive: 0.166 | inactive: -0.019 | inactive: 0.04 | inactive: 0.023 | inactive: -0.111 | inactive: -0.038 | inactive: 0.485 | inactive: 0.188 | inactive: 0.065 | inactive: 0.049 | inactive: -0.244 | inactive: 0.031 | inactive: 0.146 | inactive: 0.026 | 
NOP53 (UniProt Q9NZM5) | inactive: -0.201 | inactive: -0.272 | inactive: -0.231 | inactive: 0.005 | inactive: -0.298 | inactive: 0.036 | inactive: -0.147 | inactive: -0.121 | inactive: 0.058 | inactive: -0.387 | inactive: -0.209 | inactive: 0.018 | inactive: 0.303 | inactive: 0.212 | inactive: 0.411 | inactive: 0.233 | inactive: 0.089 | inactive: 0.321 | active: -1.19 | 
